Experimental data taken from the supplement of paper PMC9015667.
Counter-ions that a name gives are not always drawn. The list shows a part of the results. Repeats are few or missing, and single values can be far off.

Assays:
Assay in all cases: reduction in cell viability relative to untreated/vehicle; higher = more growth inhibition
Conditions in all cases: 200 nM; 72 h
M229P = system: M229P (parental melanoma line)
M229R = system: M229R (matched melanoma line resistant to BRAF inhibitors)
M238P = system: M238P (parental melanoma line)
M238R = system: M238R (matched melanoma line resistant to BRAF inhibitors)
M249P = system: M249P (parental melanoma line)
M249R = system: M249R (matched melanoma line resistant to BRAF inhibitors)
UACC62P = system: UACC62P (parental melanoma line)
UACC62R = system: UACC62R (matched melanoma line resistant to BRAF inhibitors)

Compound	reduction in cell viability (M229P)	reduction in cell viability (M229R)	reduction in cell viability (M238P)	reduction in cell viability (M238R)	reduction in cell viability (M249P)	reduction in cell viability (M249R)	reduction in cell viability (UACC62P)	reduction in cell viability (UACC62R)
CC[C@@]1(O)C(=O)OCc2c1cc1n(c2=O)Cc2cc3c(CN(C)C)c(O)ccc3nc2-1 [Topotecan HCl]	< 0%	9.83%	69%	23.3%	23.6%	45.2%	63.8%	78.5%
c1cnc2cc3c(cc2n1)[C@@H]1CNC[C@H]3C1 [Varenicline dihydrochloride]	< 0%	< 0%	< 0%	< 0%	< 0%	< 0%	< 0%	< 0%
Cc1nc(Nc2ncc(C(=O)Nc3c(C)cccc3Cl)s2)cc(N2CCN(CCO)CC2)n1 [Dasatinib]	< 0%	13.3%	11.9%	48.1%	< 0%	< 0%	< 0%	< 0%
Cc1[nH]c(=O)c(C#N)cc1-c1ccncc1 [Milrinone]	< 0%	< 0%	< 0%	< 0%	< 0%	< 0%	< 0%	< 0%
c1ccc2[nH]c(-c3cscn3)nc2c1 [Thiabendazole]	< 0%	< 0%	< 0%	< 0%	< 0%	< 0%	< 0%	< 0%
N[C@H]1CC[C@H](Nc2nc(Nc3ccc(C(=O)N4CCCCC4)cc3)c3ncn(-c4cccc(F)c4)c3n2)CC1 [Purfalcamine]	< 0%	7.96%	35%	17.6%	6.82%	29.1%	15.6%	< 0%
CNC(=O)CN1CCC(Oc2cc3c(Nc4cccc(Cl)c4F)ncnc3cc2OC)CC1 [Sapitinib]	< 0%	< 0%	< 0%	< 0%	< 0%	< 0%	4.86%	< 0%
Oc1cc(O)c(Cl)cn1 [Gimeracil]	< 0%	< 0%	< 0%	< 0%	< 0%	< 0%	4.19%	< 0%
CC(C)(C)c1[nH]cnc1/C=c1\[nH]c(=O)/c(=C/c2ccccc2)[nH]c1=O [Plinabulin]	38.3%	55.3%	61.9%	54.5%	62.1%	45.4%	51.8%	81.6%
CN1CCC(=C2c3ccccc3CC(=O)c3sccc32)CC1 [Ketotifen]	< 0%	< 0%	< 0%	< 0%	< 0%	< 0%	0.04%	< 0%
CC1(CN2CCC(n3c(=O)[nH]c4ccccc43)CC2)OCc2ccccc2-n2cccc21 (stereo not drawn) [Zaldaride maleate]	< 0%	< 0%	< 0%	< 0%	< 0%	< 0%	< 0%	< 0%
CS(=O)(=O)Oc1ccc2c(NC(N)=O)c(C(=O)c3ccc(Cl)cc3Cl)oc2c1 [Lirimilast]	< 0%	< 0%	< 0%	< 0%	< 0%	6.93%	18.1%	< 0%
COc1cc2c(N3CCN(C(=O)Nc4ccc(OC(C)C)cc4)CC3)ncnc2cc1OCCCN1CCCCC1 [Tandutinib]	< 0%	< 0%	< 0%	< 0%	< 0%	< 0%	< 0%	< 0%
NCCc1c[nH]cn1 [Histamine dihydrochloride]	< 0%	< 0%	< 0%	< 0%	< 0%	< 0%	0.6%	< 0%
O=C(NC1CC1)c1cccc(-c2ccc3c(NC(=O)C4CC4)n[nH]c3c2)c1	< 0%	< 0%	< 0%	< 0%	< 0%	0.82%	14.1%	< 0%
CN[C@@H]1C[C@H]2O[C@@](C)([C@@H]1OC)n1c3ccccc3c3c4c(c5c6ccccc6n2c5c31)C(=O)N[C@H]4O [7-Hydroxystaurosporine]	20.6%	69.5%	45.7%	81.3%	10.4%	37.5%	45.6%	52.9%

Entries of single compounds as entered above.
`COc1cc2c(N3CCN(C(=O)Nc4ccc(OC(C)C)cc4)CC3)ncnc2cc1OCCCN1CCCCC1` [Tandutinib] reads reduction in cell viability (M229P): < 0%; reduction in cell viability (M229R): < 0%; reduction in cell viability (M238P): < 0%; reduction in cell viability (M238R): < 0%; reduction in cell viability (M249P): < 0%; reduction in cell viability (M249R): < 0%; reduction in cell viability (UACC62P): < 0%; reduction in cell viability (UACC62R): < 0%
`CS(=O)(=O)Oc1ccc2c(NC(N)=O)c(C(=O)c3ccc(Cl)cc3Cl)oc2c1` [Lirimilast] reads reduction in cell viability (M229P): < 0%; reduction in cell viability (M229R): < 0%; reduction in cell viability (M238P): < 0%; reduction in cell viability (M238R): < 0%; reduction in cell viability (M249P): < 0%; reduction in cell viability (M249R): 6.93%; reduction in cell viability (UACC62P): 18.1%; reduction in cell viability (UACC62R): < 0%

Going on with the list:

Compound	reduction in cell viability (M229P)	reduction in cell viability (M229R)	reduction in cell viability (M238P)	reduction in cell viability (M238R)	reduction in cell viability (M249P)	reduction in cell viability (M249R)	reduction in cell viability (UACC62P)	reduction in cell viability (UACC62R)
CN1CCN(c2ccc3nc(-c4c(N)c5c(F)cccc5[nH]c4=O)[nH]c3c2)CC1 [Dovitinib]	4.99%	< 0%	33.5%	13.9%	24.3%	< 0%	26.2%	23.9%
CC(=O)N[C@@H](CS)C(=O)O [Acetylcysteine]	< 0%	< 0%	< 0%	< 0%	< 0%	< 0%	< 0%	< 0%
CO[C@H]1/C=C/O[C@@]2(C)Oc3c(C)c(O)c4c(O)c(c(/C=N/N5CCN(C6CCCC6)CC5)c(O)c4c3C2=O)NC(=O)/C(C)=C\C=C\[C@H](C)[C@H](O)[C@@H](C)[C@@H](O)[C@@H](C)[C@H](OC(C)=O)[C@@H]1C [Rifapentine]	< 0%	< 0%	< 0%	< 0%	< 0%	5.09%	8.24%	< 0%
Nc1nc(OCc2ccccc2)c2nc[nH]c2n1 [O6-Benzylguanine]	< 0%	< 0%	< 0%	< 0%	< 0%	< 0%	< 0%	< 0%
CCCc1nc(C(C)(C)O)c(C(=O)O)n1Cc1ccc(-c2ccccc2-c2nnn[nH]2)cc1 [Olmesartan]	< 0%	< 0%	< 0%	< 0%	< 0%	< 0%	< 0%	< 0%
CC(C)OC(=O)[C@H](C)N[P@](=O)(OC[C@H]1O[C@@H](n2ccc(=O)[nH]c2=O)[C@](C)(F)[C@@H]1O)Oc1ccccc1 [Sofosbuvir]	< 0%	< 0%	< 0%	< 0%	< 0%	< 0%	< 0%	< 0%
CO[C@H]1C[C@@H]2CC[C@@H](C)[C@@](O)(O2)C(=O)C(=O)N2CCCC[C@H]2C(=O)O[C@H]([C@H](C)C[C@@H]2CC[C@@H](OP(C)(C)=O)[C@H](OC)C2)CC(=O)[C@H](C)/C=C(\C)[C@@H](O)[C@@H](OC)C(=O)[C@H](C)C[C@H](C)/C=C/C=C/C=C/1C [Ridaforolimus]	< 0%	8.1%	9.27%	18.8%	12.8%	6.03%	20%	15.6%
C=CC(=O)Nc1cccc(Sc2nc(Nc3ccc(N4CCN(C)CC4)cc3)ncc2Cl)c1	< 0%	< 0%	< 0%	< 0%	< 0%	< 0%	< 0%	< 0%
O=S(=O)(O)CCS [Sodium 2-mercaptoethanesulfonate]	< 0%	7.11%	< 0%	< 0%	< 0%	< 0%	< 0%	< 0%
Cc1csc(-c2nnc(Nc3ccc(Oc4ncccc4-c4ccnc(N)n4)cc3)c3ccccc23)c1	< 0%	< 0%	28.9%	23.6%	8.02%	< 0%	12.2%	58.1%
Cc1[nH]nc2ccc(-c3cncc(OC[C@@H](N)Cc4ccccc4)c3)cc12	< 0%	27.5%	14.2%	< 0%	0.97%	26.9%	29.9%	7.86%
CC#C[C@]1(O)CC[C@H]2[C@@H]3CCC4=CC(=O)CCC4=C3[C@@H](c3ccc(N(C)C)cc3)C[C@@]21C [Mifepristone]	< 0%	1.49%	< 0%	< 0%	< 0%	< 0%	< 0%	< 0%
CC1=NN(c2ccc(C)c(C)c2)C(=O)/C1=N\Nc1cccc(-c2cccc(C(=O)O)c2)c1O [Eltrombopag]	< 0%	< 0%	< 0%	< 0%	< 0%	< 0%	< 0%	< 0%
CCCCCOC(=O)Nc1nc(=O)n([C@@H]2O[C@H](C)[C@@H](O)[C@H]2O)cc1F [Capecitabine]	< 0%	< 0%	< 0%	< 0%	< 0%	< 0%	< 0%	< 0%
COCCCN1CCC(NC(=O)c2cc(Cl)c(N)c3c2OCC3)CC1 [Prucalopride]	< 0%	< 0%	< 0%	< 0%	< 0%	< 0%	31.8%	< 0%
